In US20240109915A1, “NOVEL ACC INHIBITORS” (Pfizer Inc., priority 2022, published 2024):
Structures were worked out from names or drawings and are uncertain.

Molecular target: recombinant human ACC1 (rhACC1) (Homo sapiens (Human), UniProt Q13085)
Experiment: Transcreener ADP detection FP assay, direct inhibition of rhACC1
Settings: read-out: Transcreener assay rhACC1 IC50; Geomean IC50, n ≥ 2 unless * then n = 1; 50 μM ATP, 30 μM acetyl-CoA
Experimental: The direct inhibition of ACC1 for the compounds of the present invention was determined using preparations of recombinant human ACC1 (rhACC1) (SEQ ID NO. 1)
Two liters of SF9 cells, infected with recombinant baculovirus containing full length human ACC1 cDNA, were suspended in ice-cold lysis buffer (25 mM Tris, pH 7.5; 150 mM NaCl; 10% glycerol; 5 mM imidazole (EMD Bioscience; Gibbstown, NJ); 2 mM TCEP (BioVectra; Charlottetown, Canada); Benzonase nuclease (10000 U/100 g cell paste; Novagen; Madison, WI); EDTA-free protease inhibitor cocktail (1 tab/50 ml; Roche Diagnostics; Mannheim, Germany). Cells were lysed by 3 cycles of freeze-thaw and centrifuged at 40,000×g for 40 minutes (4° C.). Supernatant was directly loaded onto a HisTrap FF crude column (GE Healthcare; Piscataway, NJ) and eluted with an imidazole gradient up to 0.5 M over 20 column volumes (CV). […]
Measurement of rhACC1 Inhibition rhACC1 was assayed in a Corning #3820 (Corning, Tewksbury, MA) 384-well plate using the Transcreener ADP detection FP assay kit (Bellbrook Labs, Madison, Wisconsin) using the manufacturer's recommended conditions for a 50 μM ATP reaction. […] The data was acquired on an Envision Fluorescence reader (PerkinElmer) using a 620 excitation Cy5 FP general dual mirror, 620 excitation Cy5 FP filter, 688 emission (S) and a 688 (P) emission filter.

Q: For `Cc1n[nH]c2c(Cl)cc(C(=O)N3CCC4(CC3)CC(=O)c3nc(C(C)(C)C)sc3C4)cc12`, which IC50 is on record?
A: 23.3 nM
